Source: PubChem BioAssay (NCATS)
Values joined by “and” are separate entries in the source; they are usually repeats but may differ in a detail not shown here. Equal entries are not always repeated. This is one part of the list. Further columns of the screen follow, without active or inactive calls. Compounds called inactive in the main read-out are mostly missing here.

Assay: qHTS assay for small molecule antagonists of retinoid X receptor alpha signaling (AID 588546);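 also: cells stimulated with 9-cis-retinoic acid as agonist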
Settings: HEK293T RXRa-UAS-bla, beta-lactamase ratio, antagonist mode; measured here: W530 green channel, cytotoxicity proxy
In short: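 Beta-lactamase reporter inhibition, read as CCF4 fluorescence ratio (ex 405, em 460/530 nm) after 2 h at RT. HEK293T UAS-bla cells, 2500/well, were stimulated with 9-cis-RA at 500 or 100 nM final alongside test compound for 18 h at 37 C.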
% is scaled to controls: 0 for no effect and ±100 for the full control effect.

Structure (SMILES) | max response
O=C(O)c1cc[c]([Hg][Cl])cc1 | -34.9%
CN(C)CCC=C1c2ccccc2CCc2ccccc21 | 14.4% and 5.47%
CC(=O)[C@H]1CC[C@H]2[C@@H]3CCC4=CC(=O)CC[C@]4(C)[C@H]3CC[C@]12C | 14.5% and 25.5%
C[C@]12CCC(=O)C=C1CC[C@@H]1[C@@H]2CC[C@]2(C)C(=O)CC[C@@H]12 | 26.5%
